These results are taken from the supplement of paper PMC11006884.

Chains of the proteins cited; added tags and fusions are not shown. Lines headed by an entry give the natural chain unless they say otherwise; changes in a name come on top.
UniProt P41091, whole entry, looked up: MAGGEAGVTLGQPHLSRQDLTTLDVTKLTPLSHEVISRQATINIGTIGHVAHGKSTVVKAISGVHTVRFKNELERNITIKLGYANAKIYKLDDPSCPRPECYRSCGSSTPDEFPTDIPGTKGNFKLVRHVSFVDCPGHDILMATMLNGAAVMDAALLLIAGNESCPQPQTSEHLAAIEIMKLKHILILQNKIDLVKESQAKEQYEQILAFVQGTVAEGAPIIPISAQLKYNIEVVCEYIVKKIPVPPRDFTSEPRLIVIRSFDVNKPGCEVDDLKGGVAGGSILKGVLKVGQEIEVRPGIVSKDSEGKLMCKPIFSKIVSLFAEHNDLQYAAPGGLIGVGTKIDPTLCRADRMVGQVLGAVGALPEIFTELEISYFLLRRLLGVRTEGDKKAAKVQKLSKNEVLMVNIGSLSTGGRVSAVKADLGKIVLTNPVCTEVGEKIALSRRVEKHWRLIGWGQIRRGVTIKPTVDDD
UniProt P33981: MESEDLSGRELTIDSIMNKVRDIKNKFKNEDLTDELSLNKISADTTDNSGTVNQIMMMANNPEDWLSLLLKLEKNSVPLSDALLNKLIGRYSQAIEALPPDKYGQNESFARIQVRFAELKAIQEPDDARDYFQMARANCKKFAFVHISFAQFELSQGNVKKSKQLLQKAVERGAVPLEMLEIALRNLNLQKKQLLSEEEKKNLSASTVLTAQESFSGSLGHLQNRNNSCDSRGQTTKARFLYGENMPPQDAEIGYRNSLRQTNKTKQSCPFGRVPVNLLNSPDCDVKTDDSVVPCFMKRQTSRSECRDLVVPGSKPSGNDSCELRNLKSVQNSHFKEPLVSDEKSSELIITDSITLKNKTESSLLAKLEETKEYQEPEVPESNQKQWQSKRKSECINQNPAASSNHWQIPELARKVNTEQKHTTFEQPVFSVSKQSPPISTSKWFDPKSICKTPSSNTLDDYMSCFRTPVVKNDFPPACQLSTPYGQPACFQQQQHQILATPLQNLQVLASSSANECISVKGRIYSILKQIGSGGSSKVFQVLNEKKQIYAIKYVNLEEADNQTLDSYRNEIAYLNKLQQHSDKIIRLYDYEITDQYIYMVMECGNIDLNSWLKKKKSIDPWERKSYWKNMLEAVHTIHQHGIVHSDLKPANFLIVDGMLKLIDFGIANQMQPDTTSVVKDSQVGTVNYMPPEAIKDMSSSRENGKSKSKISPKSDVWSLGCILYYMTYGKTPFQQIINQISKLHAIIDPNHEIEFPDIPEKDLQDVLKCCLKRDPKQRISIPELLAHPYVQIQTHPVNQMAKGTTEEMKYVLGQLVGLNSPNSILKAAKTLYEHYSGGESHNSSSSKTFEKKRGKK
UniProt P41212: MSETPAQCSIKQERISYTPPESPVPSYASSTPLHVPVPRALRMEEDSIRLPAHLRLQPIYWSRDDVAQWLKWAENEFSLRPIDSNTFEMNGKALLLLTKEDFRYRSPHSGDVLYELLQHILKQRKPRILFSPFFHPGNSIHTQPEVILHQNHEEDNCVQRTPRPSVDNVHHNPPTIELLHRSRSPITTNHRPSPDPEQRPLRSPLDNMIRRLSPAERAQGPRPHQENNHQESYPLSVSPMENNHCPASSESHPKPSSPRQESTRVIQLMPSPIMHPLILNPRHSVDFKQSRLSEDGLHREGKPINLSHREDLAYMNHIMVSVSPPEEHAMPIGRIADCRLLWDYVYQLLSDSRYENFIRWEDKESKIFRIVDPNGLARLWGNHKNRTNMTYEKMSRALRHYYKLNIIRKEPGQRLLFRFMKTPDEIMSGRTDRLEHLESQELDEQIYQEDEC
UniProt P33176: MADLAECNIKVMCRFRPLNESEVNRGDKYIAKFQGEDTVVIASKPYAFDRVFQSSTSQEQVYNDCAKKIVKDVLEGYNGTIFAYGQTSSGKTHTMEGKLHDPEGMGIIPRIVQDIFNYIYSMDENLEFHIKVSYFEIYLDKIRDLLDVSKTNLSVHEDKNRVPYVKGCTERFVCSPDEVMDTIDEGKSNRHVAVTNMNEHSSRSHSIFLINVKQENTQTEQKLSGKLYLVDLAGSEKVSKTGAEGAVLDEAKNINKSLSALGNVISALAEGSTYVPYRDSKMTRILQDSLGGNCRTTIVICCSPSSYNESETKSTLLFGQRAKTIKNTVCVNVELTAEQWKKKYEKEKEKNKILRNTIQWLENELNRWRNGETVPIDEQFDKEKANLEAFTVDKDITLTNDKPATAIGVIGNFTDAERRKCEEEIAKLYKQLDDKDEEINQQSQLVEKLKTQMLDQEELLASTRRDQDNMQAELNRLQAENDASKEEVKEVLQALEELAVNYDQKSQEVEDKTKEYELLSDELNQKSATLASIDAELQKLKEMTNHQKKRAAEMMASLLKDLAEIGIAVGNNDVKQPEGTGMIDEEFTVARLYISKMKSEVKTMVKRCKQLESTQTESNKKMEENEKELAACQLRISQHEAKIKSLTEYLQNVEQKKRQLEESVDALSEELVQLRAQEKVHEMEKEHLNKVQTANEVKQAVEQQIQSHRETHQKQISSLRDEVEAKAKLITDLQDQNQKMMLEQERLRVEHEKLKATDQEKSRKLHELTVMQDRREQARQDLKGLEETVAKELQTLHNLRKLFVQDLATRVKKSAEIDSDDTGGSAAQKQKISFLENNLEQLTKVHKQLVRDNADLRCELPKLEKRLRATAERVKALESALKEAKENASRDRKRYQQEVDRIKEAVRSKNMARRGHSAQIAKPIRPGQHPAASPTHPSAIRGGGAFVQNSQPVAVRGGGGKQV
UniProt P30520: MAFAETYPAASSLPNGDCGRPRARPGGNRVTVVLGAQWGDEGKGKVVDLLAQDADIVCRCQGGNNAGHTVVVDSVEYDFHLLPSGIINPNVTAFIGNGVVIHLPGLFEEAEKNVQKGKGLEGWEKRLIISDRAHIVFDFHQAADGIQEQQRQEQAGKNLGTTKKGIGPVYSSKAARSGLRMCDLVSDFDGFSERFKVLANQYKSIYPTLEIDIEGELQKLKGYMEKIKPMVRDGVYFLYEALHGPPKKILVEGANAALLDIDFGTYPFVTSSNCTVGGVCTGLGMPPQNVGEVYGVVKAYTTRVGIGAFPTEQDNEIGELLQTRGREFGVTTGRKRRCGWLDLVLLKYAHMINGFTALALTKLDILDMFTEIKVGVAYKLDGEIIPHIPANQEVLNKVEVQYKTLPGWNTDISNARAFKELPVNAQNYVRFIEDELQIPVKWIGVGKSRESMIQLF
UniProt P38117: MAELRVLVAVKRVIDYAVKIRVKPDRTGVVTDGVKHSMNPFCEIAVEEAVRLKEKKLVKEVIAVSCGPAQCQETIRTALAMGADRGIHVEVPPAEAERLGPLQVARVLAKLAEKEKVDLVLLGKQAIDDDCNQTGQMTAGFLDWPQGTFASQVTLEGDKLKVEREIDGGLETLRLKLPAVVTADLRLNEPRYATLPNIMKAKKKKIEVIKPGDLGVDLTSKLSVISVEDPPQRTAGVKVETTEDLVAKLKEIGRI
UniProt P35579, whole entry, looked up: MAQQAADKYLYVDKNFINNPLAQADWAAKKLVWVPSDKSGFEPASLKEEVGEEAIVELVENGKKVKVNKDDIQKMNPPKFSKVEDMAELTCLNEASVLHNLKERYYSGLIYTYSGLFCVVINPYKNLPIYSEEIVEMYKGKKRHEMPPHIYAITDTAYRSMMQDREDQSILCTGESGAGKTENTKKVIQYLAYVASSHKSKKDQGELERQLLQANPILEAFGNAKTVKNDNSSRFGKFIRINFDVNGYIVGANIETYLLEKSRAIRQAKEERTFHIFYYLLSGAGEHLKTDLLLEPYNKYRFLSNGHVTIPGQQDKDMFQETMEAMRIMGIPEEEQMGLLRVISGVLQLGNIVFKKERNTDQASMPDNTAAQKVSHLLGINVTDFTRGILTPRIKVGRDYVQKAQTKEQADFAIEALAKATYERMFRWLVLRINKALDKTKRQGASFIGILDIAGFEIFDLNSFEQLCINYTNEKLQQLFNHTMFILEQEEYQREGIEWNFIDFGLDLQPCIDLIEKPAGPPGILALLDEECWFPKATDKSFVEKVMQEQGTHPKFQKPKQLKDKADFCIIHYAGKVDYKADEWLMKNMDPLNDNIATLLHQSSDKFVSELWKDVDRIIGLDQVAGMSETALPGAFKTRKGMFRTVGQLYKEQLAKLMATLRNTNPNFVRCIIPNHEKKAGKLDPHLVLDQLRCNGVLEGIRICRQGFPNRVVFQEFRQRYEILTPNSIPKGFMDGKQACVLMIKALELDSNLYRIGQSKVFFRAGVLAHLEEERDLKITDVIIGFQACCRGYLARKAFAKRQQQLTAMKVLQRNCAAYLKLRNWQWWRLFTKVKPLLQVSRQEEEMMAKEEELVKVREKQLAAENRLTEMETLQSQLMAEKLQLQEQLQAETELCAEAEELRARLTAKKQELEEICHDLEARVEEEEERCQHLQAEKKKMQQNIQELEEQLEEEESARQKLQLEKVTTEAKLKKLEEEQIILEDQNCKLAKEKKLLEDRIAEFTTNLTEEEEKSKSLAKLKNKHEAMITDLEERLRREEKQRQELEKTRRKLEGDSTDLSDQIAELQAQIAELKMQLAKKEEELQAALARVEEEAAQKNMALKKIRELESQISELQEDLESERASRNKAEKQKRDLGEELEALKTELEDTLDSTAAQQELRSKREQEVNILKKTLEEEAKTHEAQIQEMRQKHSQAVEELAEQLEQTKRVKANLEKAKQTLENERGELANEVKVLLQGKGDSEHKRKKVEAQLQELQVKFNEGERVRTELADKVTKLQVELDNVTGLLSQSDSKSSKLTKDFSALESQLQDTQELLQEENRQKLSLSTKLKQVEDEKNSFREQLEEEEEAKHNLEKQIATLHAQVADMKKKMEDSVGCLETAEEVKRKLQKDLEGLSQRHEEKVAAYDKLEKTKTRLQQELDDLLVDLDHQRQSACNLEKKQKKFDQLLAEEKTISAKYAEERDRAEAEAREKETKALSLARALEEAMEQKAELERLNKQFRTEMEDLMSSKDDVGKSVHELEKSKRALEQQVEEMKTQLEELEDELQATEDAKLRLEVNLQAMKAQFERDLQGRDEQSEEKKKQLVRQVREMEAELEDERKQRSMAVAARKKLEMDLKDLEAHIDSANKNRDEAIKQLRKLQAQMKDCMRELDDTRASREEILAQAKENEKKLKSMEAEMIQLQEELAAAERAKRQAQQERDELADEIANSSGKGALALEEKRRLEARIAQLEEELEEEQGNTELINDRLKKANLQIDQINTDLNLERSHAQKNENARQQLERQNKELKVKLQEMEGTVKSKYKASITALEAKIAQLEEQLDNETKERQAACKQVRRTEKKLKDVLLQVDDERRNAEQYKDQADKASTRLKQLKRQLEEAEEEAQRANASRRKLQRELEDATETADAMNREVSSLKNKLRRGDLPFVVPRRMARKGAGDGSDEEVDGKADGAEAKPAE
UniProt P40222: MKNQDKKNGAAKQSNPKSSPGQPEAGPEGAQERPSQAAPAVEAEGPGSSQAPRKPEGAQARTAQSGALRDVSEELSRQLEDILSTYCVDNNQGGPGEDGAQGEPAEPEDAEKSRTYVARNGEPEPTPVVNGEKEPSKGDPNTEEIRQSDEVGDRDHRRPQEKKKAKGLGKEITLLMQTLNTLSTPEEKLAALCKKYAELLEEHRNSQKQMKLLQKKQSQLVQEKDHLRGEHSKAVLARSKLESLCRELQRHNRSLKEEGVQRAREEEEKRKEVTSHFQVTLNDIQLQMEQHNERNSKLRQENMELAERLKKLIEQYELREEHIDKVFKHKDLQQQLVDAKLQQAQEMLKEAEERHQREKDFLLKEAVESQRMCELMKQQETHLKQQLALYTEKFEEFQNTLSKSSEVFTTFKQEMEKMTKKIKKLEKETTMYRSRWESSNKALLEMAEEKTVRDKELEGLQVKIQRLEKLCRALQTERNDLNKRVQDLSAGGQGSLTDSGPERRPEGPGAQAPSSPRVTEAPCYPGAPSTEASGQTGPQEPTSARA
UniProt P35249, whole entry: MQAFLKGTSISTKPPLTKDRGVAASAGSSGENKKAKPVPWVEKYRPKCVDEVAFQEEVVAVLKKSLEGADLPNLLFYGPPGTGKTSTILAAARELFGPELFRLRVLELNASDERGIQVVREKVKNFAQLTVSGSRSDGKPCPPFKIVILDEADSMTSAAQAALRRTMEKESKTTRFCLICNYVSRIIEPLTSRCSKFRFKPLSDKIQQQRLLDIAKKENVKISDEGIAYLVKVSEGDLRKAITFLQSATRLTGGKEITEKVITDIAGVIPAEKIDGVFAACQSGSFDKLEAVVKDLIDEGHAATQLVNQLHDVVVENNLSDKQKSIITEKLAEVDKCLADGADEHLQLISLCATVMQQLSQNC
UniProt P35754: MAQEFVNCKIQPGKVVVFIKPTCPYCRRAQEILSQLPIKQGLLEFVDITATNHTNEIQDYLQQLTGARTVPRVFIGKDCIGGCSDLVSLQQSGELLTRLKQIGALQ

Only a part is listed here, and it is no random draw.

Compound in this assay: COC(=O)C#Cc1ccccc1 [methyl 3-phenylpropiolate]
Nature of the assay: log2 ratio of iodoacetamide-alkyne labeling of the cysteine site, DMSO over compound (competition); higher = stronger covalent engagement of the cysteine by the compound, active = 1 or more. The note with it: 500 µM; treatment time 1 h; system: HEK293T cell lysate. In short, it runs like this: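 Electrophile (500 µM) or vehicle was added to HEK293T lysate (2 mg/mL) for 1 h at ambient temperature before iodoacetamide alkyne labelling (1 h) and click coupling to sCIP-TMT reagents. After pooling, overnight trypsin digestion at 37 °C, streptavidin enrichment and acid elution, peptides were measured by Orbitrap Eclipse LC-MS/MS with FAIMS and quantified in FragPipe. Each cysteine's log2 competition ratio compares mean control-channel with mean compound-channel reporter intensity, control over compound. Data came from duplicate channels across three replicates, excluding cysteines quantified in only one replicate.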
Take EIF2S3 C96 (UniProt P41091): the “log2 ratio of iodoacetamide-alkyne labeling” value (“log2 ratio” for short) was inactive: 0.22.
On to TTK C395 (UniProt P33981), for which the “log2 ratio” value is inactive: 0.269.
Take CAP2 C32 (UniProt P40123): the “log2 ratio” value is inactive: 0.397.
With HSPA4 C34 (UniProt P34932) the figure was inactive: 0.0138; with POLR2B C945 (UniProt P30876), inactive: 0.456; with ETV6 C8 (UniProt P41212), inactive: 0.678.
As to HSPA4 C310 (UniProt P34932), the “log2 ratio” value was inactive: 0.0466.
Turning to UQCRC1 C453 (UniProt P31930), the “log2 ratio” value was inactive: 0.217.
Consider TMPO C629 (UniProt P42166), for which the “log2 ratio” value was inactive: -0.0337.
With KIF5B C330 (UniProt P33176), the “log2 ratio” value is inactive: 0.177.
Regarding HMGCL C323 (UniProt P35914), the “log2 ratio” value is inactive: 0.229.
PPP2R1A C174 (UniProt P30153): the “log2 ratio” value was inactive: 0.169.
As for UniProt P30520_C182, the “log2 ratio” value is inactive: 0.102.
For BSG C242 (UniProt P35613), the “log2 ratio” value was inactive: 0.215.
For ETFB C42 (UniProt P38117), the “log2 ratio” value was inactive: 0.207.
With MYH9 C917 (UniProt P35579), the “log2 ratio” value was inactive: 0.103.
For the target POLR2B C837 (UniProt P30876), the “log2 ratio” value is inactive: 0.523.
With PPIF C104 (UniProt P30405) the figure was inactive: 0.467; with LRPPRC C330 (UniProt P42704), inactive: 0.136; with TXLNA C523 (UniProt P40222), inactive: -0.0161.
Take RFC4 C48 (UniProt P35249): the “log2 ratio” value was inactive: -0.199.
With MCM5 C355 (UniProt P33992) the figure was inactive: 0.104.
In the case of GLRX C8 (UniProt P35754), the “log2 ratio” value was inactive: 0.315.
The value for UniProt P42285_C650 was inactive: 0.182; that for UniProt P36507_C384 was inactive: 0.261.
As to CTNNA1 C461 (UniProt P35221), the “log2 ratio” value is inactive: 0.32.
Turning to MYH9 C694 (UniProt P35579), the “log2 ratio” value is inactive: 0.476.
For the target PDIA3 C244 (UniProt P30101), the “log2 ratio” value is inactive: -0.0511.
The value for POLR2B C224 (UniProt P30876) was inactive: 0.127.
Take RPL4 C208 (UniProt P36578): the “log2 ratio” value was inactive: 0.273.
Regarding CPOX C127 (UniProt P36551), the “log2 ratio” value was inactive: 0.347.
On to POLR2B C1137 (UniProt P30876), for which the “log2 ratio” value is inactive: 0.175.
With FUS C428 (UniProt P35637) the figure was inactive: -0.0568; with LIFR C1061 (UniProt P42702), inactive: 0.854.
ETFB C71 (UniProt P38117): the “log2 ratio” value was inactive: 0.579.
HNRNPH1 C267 (UniProt P31943): the “log2 ratio” value was inactive: 0.211.
Regarding GPX4 C134 (UniProt P36969), the “log2 ratio” value is inactive: -0.0445.
